PubChem BioAssay AID1259308 | NCATS, 2017

Purpose: 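Genes whose loss raises luciferase production in HEK293 cells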 (primary screen)
System: human HEK293 embryonic kidney cells stably expressing firefly luciferase (HEK-CMV-Luc2-Hygro)
Reagent: single siRNA against human genes, 0.8 pmol siRNA per well
Time to read-out: 72 h
Read-out: 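Reporter luminescence and viable-cell signal on separate replicate plates, given as percent of non-targeting control and median/MAD z-scores, plus per-cell luciferase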
Reading the numbers: total luciferase, z-score and total luciferase, % of control: higher = more reporter protein produced; luciferase per cell, z-score: higher = more reporter output per viable cell; viable cells, % of control: higher = more viable cells
Rule for the call: 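An siRNA counts as active if its total luciferase robust z-score exceeds 3; genes with two or more such siRNAs out of three were retested with fresh siRNAs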
Calls: active = raised luciferase; inactive = no rise
Here is a random part of about 59,000 deposited reagents. In the full data, about 1,510 (2.6%) got an active call. 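Calls use total luciferase alone and ignore viability, so some active siRNAs may act by altering cell number.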 The numbers tell different reagents against one gene apart.

| gene | siRNA no. | total luciferase, z-score | total luciferase, % of control | luciferase per cell, z-score | viable cells, % of control | activity call |
| --- | --- | --- | --- | --- | --- | --- |
| ORC1 | 1 | -0.683 | 68.3 | -0.0951 | 78.3 | inactive |
| ORC1 | 2 | 1.46 | 111 | 0.766 | 101 | inactive |
| ORC1 | 3 | -0.629 | 69.4 | -0.323 | 84.4 | inactive |
| CARD19 | 1 | -0.858 | 64.8 | 0.0684 | 71.1 | inactive |
| CARD19 | 2 | -1.27 | 56.6 | -0.0114 | 63.4 | inactive |
| CARD19 | 3 | 0.833 | 98.5 | 0.262 | 103 | inactive |
| CSF2 | 1 | -2.58 | 30.6 | -1.22 | 47.1 | inactive |
| CSF2 | 2 | 0.266 | 87.2 | 1.05 | 73.9 | inactive |
| CSF2 | 3 | 0.589 | 93.6 | 0.189 | 99.5 | inactive |
| CFAP91 | 1 | 0.147 | 84.8 | 0.615 | 80.6 | inactive |
| CFAP91 | 2 | -0.696 | 68 | -0.198 | 80.1 | inactive |
| CFAP91 | 3 | 0.787 | 97.5 | 0.24 | 102 | inactive |
| LINC01020 | 1 | -1.32 | 55.7 | -0.632 | 73.5 | inactive |
| LINC01020 | 2 | -0.966 | 62.7 | -0.526 | 80.4 | inactive |
| LINC01020 | 3 | -0.259 | 76.7 | -0.75 | 104 | inactive |
| SORCS1 | 1 | 0.255 | 87 | -0.098 | 99.7 | inactive |
| SORCS1 | 2 | -0.518 | 71.6 | -0.737 | 97.1 | inactive |
| SORCS1 | 3 | -0.845 | 65.1 | -0.259 | 77.9 | inactive |
| AFF2 | 1 | 0.422 | 90.3 | 0.281 | 93.7 | inactive |
| AFF2 | 2 | 2.24 | 126 | 1.88 | 86.2 | inactive |
| AFF2 | 3 | 0.837 | 98.5 | 1.51 | 74.1 | inactive |
| KCNMA1 | 1 | 0.91 | 100 | 0.832 | 89.7 | inactive |
| KCNMA1 | 2 | 2.06 | 123 | 2.77 | 66.2 | inactive |
| KCNMA1 | 3 | 1.78 | 117 | 1.34 | 92.1 | inactive |
| USP53 | 1 | 0.109 | 84.1 | -0.118 | 96.9 | inactive |
| USP53 | 2 | -0.374 | 74.5 | -0.518 | 95.3 | inactive |
| USP53 | 3 | -0.119 | 79.5 | -0.492 | 101 | inactive |
| PMP2 | 1 | 0.643 | 94.7 | 1.49 | 71.5 | inactive |
| PMP2 | 2 | -0.937 | 63.2 | -1.15 | 95.8 | inactive |
| PMP2 | 3 | 0.606 | 93.9 | 0.264 | 97.9 | inactive |
| RBSN | 1 | 0.162 | 85.1 | 0.0434 | 94 | inactive |
| RBSN | 2 | -0.949 | 63 | -0.722 | 85.1 | inactive |
| RBSN | 3 | -0.531 | 71.3 | 0.199 | 75.6 | inactive |
| GPR25 | 1 | -1.07 | 60.5 | -1.29 | 95.1 | inactive |
| GPR25 | 2 | 1.52 | 112 | 1.7 | 80 | inactive |
| GPR25 | 3 | 0.0623 | 83.1 | 0.11 | 90.2 | inactive |
| MCM9 | 1 | 0.0536 | 83 | 0.000772 | 92.7 | inactive |
| MCM9 | 2 | -1.31 | 55.8 | -0.92 | 79.5 | inactive |
| MCM9 | 3 | -0.287 | 76.2 | -0.309 | 92.3 | inactive |
| CCZ1B | 1 | 0.356 | 89 | 0.973 | 76.9 | inactive |
| CCZ1B | 2 | -0.96 | 62.8 | -0.897 | 88.9 | inactive |
| CCZ1B | 3 | 0.454 | 90.9 | 0.269 | 94.7 | inactive |
| FBXO11 | 1 | -0.563 | 70.7 | -1.14 | 107 | inactive |
| FBXO11 | 2 | -0.219 | 77.5 | -1.01 | 113 | inactive |
| FBXO11 | 3 | 0.784 | 97.5 | 0.474 | 96.1 | inactive |
| STK3 | 1 | -1.33 | 55.4 | -0.0271 | 62.3 | inactive |
| STK3 | 2 | -0.0214 | 81.5 | -0.77 | 111 | inactive |
| STK3 | 3 | 2.62 | 134 | 2.02 | 88.1 | inactive |
| EPHA6 | 1 | -0.176 | 78.4 | -0.26 | 93.8 | inactive |
| EPHA6 | 2 | -0.432 | 73.3 | -0.619 | 96.4 | inactive |
| EPHA6 | 3 | -0.516 | 71.6 | -0.681 | 95.7 | inactive |
| TSHZ1 | 1 | 1.02 | 102 | 1.39 | 79.1 | inactive |
| TSHZ1 | 2 | -0.538 | 71.2 | -0.969 | 103 | inactive |
| TSHZ1 | 3 | -1.56 | 50.9 | -1.75 | 90.1 | inactive |
| ZFP1 | 1 | -0.169 | 78.5 | 0.0383 | 86.9 | inactive |
| ZFP1 | 2 | -1.33 | 55.5 | -1.72 | 97.5 | inactive |
| ZFP1 | 3 | -0.274 | 76.4 | -1 | 111 | inactive |
| FGFRL1 | 1 | 0.646 | 94.7 | 0.169 | 101 | inactive |
| FGFRL1 | 2 | 0.624 | 94.3 | 0.408 | 94.6 | inactive |
| FGFRL1 | 3 | 1.93 | 120 | 1.8 | 83.7 | inactive |
| SYT4 | 1 | 0.037 | 82.6 | 0.14 | 89 | inactive |
| SYT4 | 2 | 2.25 | 127 | 1.94 | 84.9 | inactive |
| SYT4 | 3 | -0.973 | 62.5 | -0.828 | 86.9 | inactive |
| OR1N1 | 1 | 2.5 | 132 | 2.07 | 85.4 | inactive |
| OR1N1 | 2 | -1.32 | 55.7 | -0.858 | 78 | inactive |
| OR1N1 | 3 | 0.915 | 100 | 0.397 | 101 | inactive |
| SNX27 | 1 | 1.23 | 106 | 1.23 | 86 | inactive |
| SNX27 | 2 | 0.251 | 86.9 | 0.0705 | 95.3 | inactive |
| SNX27 | 3 | -1.43 | 53.5 | -1.87 | 97.9 | inactive |
| ABI3BP | 1 | -0.865 | 64.7 | -0.961 | 93.1 | inactive |
| ABI3BP | 2 | 0.416 | 90.2 | 0.361 | 91.6 | inactive |
| ABI3BP | 3 | -0.612 | 69.7 | -0.902 | 98.8 | inactive |
| CRISPLD2 | 1 | -1.46 | 52.8 | -1.84 | 95.7 | inactive |
| CRISPLD2 | 2 | -0.777 | 66.4 | -0.803 | 91.7 | inactive |
| CRISPLD2 | 3 | 2.9 | 139 | 2.63 | 78 | inactive |
